Source: the supplement of paper PMC12889115
This is one part of the list. These are raw signals, not scaled to a control.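 First-pass screen: polymyxin B was added at a level that permeabilizes the Salmonella outer membrane while sparing the inner membrane. DMSO wells, with and without polymyxin B, defined maximum growth. Because plates differed from one another, each plate's data were ranked separately and the compounds with the lowest OD600 were carried forward as hits.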

Tested on: Salmonella enterica serovar Typhimurium SL1344
Experiment: bacterial growth OD600 after 18 h with compound and polymyxin B; higher = more bacterial growth (less inhibition)
Conditions: 50 µM, Mueller-Hinton broth

Row | SMILES | bacterial growth OD600 (polymyxin B 1 µg/mL) | bacterial growth OD600 (polymyxin B 0.75 µg/mL)
1 | O=C(CN1CCC(c2ccccc2)CC1)N1CCCC(CO)(Cc2ccccc2)C1 (stereo unspecified) | 0.736 | –
2 | COCCN(Cc1ccccn1)C(Cc1ccccc1)C1CCN(Cc2c(O)cccc2OC)CC1 (stereo unspecified) | – | 0.752
3 | COCCN1C(=O)CC(CC(=O)N2CCCC(C(=O)c3ccccc3)C2)(c2ccccc2OC)C1=O (stereo unspecified) | – | 0.828
4 | Cc1nc(C(=O)N2CCC(n3nccc3NC(=O)C(C)(C)C)CC2)cs1 | 0.919 | –
5 | CSc1nccc(-c2cc(Cl)c3c(c2)CC(CNC(=O)Cc2cn4ccsc4n2)O3)n1 (stereo unspecified) | – | 0.788
6 | CCOC(=O)C1(Cc2ccc(F)cc2)CCCN(C(=O)CC(C)C)C1 (stereo unspecified) | 0.801 | –
7 | CN1CCC(N(C)C(=O)CC(c2ccccc2)c2ccccc2F)CC1 (stereo unspecified) | – | 0.643
8 | CCc1csc(CNC(=O)c2ccc(NC3CCOC3)nc2)n1 (stereo unspecified) | 0.818 | –
9 | C[C@@H]1CN(C2(C(=O)NCCOc3cccnc3)Cc3ccccc3C2)C[C@H](C)O1 | 1.13 | –
10 | CSCC(=O)NC1CC(=O)N(CCc2ccccc2)C1 (stereo unspecified) | 1.05 | –
11 | COCCN1C(=O)NC(Cc2ccc(F)cc2)(C2CCN(C(=O)C#Cc3ccccc3)CC2)C1=O (stereo unspecified) | – | 0.734
12 | COc1ccc(CC2(CCC(=O)NCCn3ccc4ccccc43)CCC(=O)N2)c2ccccc12 (stereo unspecified) | – | 0.854
13 | Fc1cccc(CN2CCC(C3CCN(Cc4ncc[nH]4)C3)CC2)c1F (stereo unspecified) | – | 0.806
14 | CCn1c(-c2ccccc2F)nc2cc(C(=O)N3CCSCC3)cc(NC(C)=O)c21 | – | 0.848
15 | OCC#Cc1ccc(CN2CC[C@@H](N3CCN(c4ccccc4F)CC3)[C@H](O)C2)s1 | – | 0.758
16 | CC(=O)Nc1ccc(CN2CCOc3ccc(CN4CCN(c5ccc(F)cc5)CC4)cc3C2)cc1 | – | 0.772

Row | SMILES | bacterial growth OD600 (polymyxin B 1 µg/mL) | bacterial growth OD600 (polymyxin B 0.75 µg/mL)
17 | Cc1cc(C)n(Cc2cc(C(=O)N(C)Cc3ccncc3C)n[nH]2)n1 | 1.06 | –
18 | Cc1cc(-c2cc(F)cc3c2OC(CNC(=O)C2(C)CC2)C3)ccc1F (stereo unspecified) | – | 0.002
19 | c1ccc(CN2CCc3[nH]nc(-c4ccc5c(c4)OCO5)c3C2)nc1 | – | 0.891
20 | CCOC(=O)C1(Cc2ccc(Cl)cc2)CCN(CCO)CC1 | 0.959 | –
21 | COc1cc(OC)cc(C(=O)NCC2CCCN(C3CCSCC3)C2)c1 (stereo unspecified) | 0.857 | –
22 | O=C1CC(NCC2CC2)CN1CCc1cccc(Cl)c1 (stereo unspecified) | 0.9 | –
23 | CC(C)Oc1cccc(C(=O)C2CCCN(C(=O)c3ccc4c(c3)OCO4)C2)c1 (stereo unspecified) | 0.739 | –
24 | CC1(C(=O)N2CCCC2C(=O)Nc2ccccc2Oc2cccnc2)CC1 (stereo unspecified) | 0.763 | –
25 | Cc1cc(C)n(-c2ccc(NC(=O)C3CCN(C(=O)c4ocnc4C)CC3)cc2)n1 | 0.924 | –
26 | Cc1nc(N2CCC(NCc3ccc(-n4cccn4)cc3)CC2)nc2ccc(F)cc12 | – | 0.476
27 | COc1ccc(C(CC(=O)N(C)CC(C)C)c2ccccc2)cc1 (stereo unspecified) | 0.604 | –
28 | COc1ccc(C(=O)NC2CCCCCCC2)cc1OC1CCN(C(C)=O)CC1 | 1.21 | –
29 | COC(=O)C1CCCCN1C(=O)c1c(OC)cc(=O)n2c1CCN(Cc1cc3ccccc3o1)CC2 (stereo unspecified) | – | 0.8
30 | CCOC(=O)CC1COCCN1Cc1c[nH]nc1-c1cc(OC)c(OC)c(OC)c1 (stereo unspecified) | 0.821 | –
31 | CCOc1ccccc1CN1CCN(Cc2ccccc2F)CC1CCO (stereo unspecified) | 0.902 | –

A section of the results above, as a working copy:
Row | SMILES | bacterial growth OD600 (polymyxin B 1 µg/mL) | bacterial growth OD600 (polymyxin B 0.75 µg/mL)
23 | CC(C)Oc1cccc(C(=O)C2CCCN(C(=O)c3ccc4c(c3)OCO4)C2)c1 (stereo unspecified) | 0.739 | –
24 | CC1(C(=O)N2CCCC2C(=O)Nc2ccccc2Oc2cccnc2)CC1 (stereo unspecified) | 0.763 | –
